Data reported in publication PMC5601916.
Read-outs that look alike come from different tables or passages of the source. Results are given in words; binding and its absence hold for the method and conditions named. In cells and extracts the contact can be indirect. Here binding means that the protein was enriched with, or labelled near, the bait; the list need not be complete. One block for each molecule: values may come before it.

Protein sequences, listed by entry. Tags and fused reporters are not part of them.
UniProt O88895: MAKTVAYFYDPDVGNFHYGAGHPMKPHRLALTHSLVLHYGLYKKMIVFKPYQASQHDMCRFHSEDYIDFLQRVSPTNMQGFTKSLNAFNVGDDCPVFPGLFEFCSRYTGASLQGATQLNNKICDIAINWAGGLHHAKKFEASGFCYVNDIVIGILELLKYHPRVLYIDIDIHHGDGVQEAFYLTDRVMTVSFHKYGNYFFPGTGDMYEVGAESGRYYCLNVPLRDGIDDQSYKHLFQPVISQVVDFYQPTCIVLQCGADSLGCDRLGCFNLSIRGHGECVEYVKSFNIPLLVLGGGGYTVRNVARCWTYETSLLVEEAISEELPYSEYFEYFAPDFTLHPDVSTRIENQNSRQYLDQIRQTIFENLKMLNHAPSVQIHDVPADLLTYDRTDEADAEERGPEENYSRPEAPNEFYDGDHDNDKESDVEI
UniProt Q01147: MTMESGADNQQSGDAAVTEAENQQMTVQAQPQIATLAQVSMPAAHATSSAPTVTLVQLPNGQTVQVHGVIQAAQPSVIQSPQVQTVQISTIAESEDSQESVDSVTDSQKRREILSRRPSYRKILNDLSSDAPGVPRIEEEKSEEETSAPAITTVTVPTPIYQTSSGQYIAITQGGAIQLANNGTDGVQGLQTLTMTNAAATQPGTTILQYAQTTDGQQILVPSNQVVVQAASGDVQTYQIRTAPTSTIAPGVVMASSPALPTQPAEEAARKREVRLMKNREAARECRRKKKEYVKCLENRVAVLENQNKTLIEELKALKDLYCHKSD
UniProt Q60974: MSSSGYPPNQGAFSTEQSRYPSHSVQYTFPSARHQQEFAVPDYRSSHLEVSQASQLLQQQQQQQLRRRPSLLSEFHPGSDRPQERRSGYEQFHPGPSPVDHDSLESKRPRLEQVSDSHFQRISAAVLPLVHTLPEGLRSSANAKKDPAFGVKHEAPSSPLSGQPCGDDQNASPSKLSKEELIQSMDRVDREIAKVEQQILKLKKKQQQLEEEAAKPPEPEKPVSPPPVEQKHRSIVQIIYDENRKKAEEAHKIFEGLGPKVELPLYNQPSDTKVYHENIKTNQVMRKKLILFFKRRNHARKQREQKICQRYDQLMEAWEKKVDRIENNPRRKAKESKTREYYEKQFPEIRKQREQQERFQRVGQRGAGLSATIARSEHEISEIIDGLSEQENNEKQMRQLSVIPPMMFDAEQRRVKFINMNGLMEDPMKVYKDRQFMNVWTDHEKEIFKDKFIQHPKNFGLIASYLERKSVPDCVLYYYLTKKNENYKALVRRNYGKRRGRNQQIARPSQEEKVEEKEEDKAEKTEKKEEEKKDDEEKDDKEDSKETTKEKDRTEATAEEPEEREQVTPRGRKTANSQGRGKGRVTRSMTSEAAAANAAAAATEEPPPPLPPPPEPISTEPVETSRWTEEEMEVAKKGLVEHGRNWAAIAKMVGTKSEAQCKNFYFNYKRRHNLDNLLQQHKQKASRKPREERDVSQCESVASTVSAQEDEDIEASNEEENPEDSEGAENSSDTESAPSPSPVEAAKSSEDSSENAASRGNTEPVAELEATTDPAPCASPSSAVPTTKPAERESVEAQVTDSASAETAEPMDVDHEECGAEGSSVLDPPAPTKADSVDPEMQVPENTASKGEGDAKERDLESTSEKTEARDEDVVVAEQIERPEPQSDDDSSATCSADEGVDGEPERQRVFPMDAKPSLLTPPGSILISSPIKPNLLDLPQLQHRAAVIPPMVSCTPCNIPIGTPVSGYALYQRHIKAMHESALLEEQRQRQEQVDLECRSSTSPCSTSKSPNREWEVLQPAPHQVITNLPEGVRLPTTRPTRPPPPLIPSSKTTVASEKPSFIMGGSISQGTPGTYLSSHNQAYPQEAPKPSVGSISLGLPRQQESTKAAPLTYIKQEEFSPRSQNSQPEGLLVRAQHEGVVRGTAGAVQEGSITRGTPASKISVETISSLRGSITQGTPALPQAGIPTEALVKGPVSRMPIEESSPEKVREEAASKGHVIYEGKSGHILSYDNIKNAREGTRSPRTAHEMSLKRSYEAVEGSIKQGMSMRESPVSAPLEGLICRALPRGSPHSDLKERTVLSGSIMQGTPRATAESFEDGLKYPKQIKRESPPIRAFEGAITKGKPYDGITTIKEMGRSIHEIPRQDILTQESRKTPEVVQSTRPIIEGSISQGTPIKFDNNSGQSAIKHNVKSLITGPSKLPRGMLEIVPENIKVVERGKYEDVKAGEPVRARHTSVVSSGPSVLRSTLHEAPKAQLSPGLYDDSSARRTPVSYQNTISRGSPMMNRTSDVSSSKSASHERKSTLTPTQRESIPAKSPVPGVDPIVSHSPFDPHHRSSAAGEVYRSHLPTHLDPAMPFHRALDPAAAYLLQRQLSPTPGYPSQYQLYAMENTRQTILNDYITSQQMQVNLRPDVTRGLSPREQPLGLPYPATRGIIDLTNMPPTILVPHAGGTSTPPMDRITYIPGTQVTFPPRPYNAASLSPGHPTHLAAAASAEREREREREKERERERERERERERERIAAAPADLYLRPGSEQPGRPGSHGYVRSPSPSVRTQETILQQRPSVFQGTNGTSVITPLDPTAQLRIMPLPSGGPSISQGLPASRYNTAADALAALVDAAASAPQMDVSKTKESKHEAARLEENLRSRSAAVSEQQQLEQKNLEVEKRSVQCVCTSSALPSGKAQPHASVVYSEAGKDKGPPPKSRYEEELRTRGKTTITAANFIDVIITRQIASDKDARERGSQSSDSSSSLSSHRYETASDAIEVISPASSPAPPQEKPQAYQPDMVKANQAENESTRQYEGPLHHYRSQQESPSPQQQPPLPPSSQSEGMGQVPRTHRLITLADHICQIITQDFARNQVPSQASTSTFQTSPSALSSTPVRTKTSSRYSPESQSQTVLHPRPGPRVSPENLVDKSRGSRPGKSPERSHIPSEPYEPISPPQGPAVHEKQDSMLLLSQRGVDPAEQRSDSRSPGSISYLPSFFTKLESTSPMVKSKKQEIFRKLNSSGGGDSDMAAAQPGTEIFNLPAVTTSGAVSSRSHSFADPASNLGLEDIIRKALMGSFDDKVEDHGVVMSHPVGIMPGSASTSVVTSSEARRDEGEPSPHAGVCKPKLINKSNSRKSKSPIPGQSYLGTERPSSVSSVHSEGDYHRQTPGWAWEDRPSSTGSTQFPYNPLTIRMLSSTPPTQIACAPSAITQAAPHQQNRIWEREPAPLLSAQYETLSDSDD
UniProt P53566: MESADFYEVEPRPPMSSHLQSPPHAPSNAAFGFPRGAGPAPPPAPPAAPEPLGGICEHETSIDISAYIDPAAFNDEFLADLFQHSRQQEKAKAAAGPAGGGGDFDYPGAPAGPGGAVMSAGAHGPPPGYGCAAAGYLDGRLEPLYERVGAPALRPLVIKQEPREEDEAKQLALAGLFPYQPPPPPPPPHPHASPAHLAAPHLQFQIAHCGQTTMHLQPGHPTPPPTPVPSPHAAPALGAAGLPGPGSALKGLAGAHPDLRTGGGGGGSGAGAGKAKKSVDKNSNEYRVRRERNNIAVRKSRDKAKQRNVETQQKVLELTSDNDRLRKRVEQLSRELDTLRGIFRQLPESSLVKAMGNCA

What was measured:
[1] = target: HA-tagged HDAC3 (AAV8 TBG HDAC3-HA), expressed in hepatocytes of Hdac3 fl/fl mice (UniProt O88895); experiment: affinity purification with mass spectrometry; NEAT ChIP-MS: nuclei isolated from livers expressing HDAC3-HA (endogenous HDAC3 deleted by Cre), cross-linked with 1% formaldehyde, sonicated, anti-HA agarose overnight, nLC-MS/MS; compared with HA-EGFP control (10-fold, P < 0.01)
[2] = target: HA-tagged HDAC3 (AAV8 TBG HDAC3-HA), expressed in hepatocytes of Hdac3 fl/fl mice (UniProt O88895); experiment: as above; remark: listed apart in the source

binding [1]: binds
Molecule: CREB1, endogenous in mouse liver (from UniProt Q01147 1-327)

binding [1]: binds
Molecule: nuclear receptor corepressor (NCOR1), endogenous in mouse liver (from UniProt Q60974 1-2453)

binding [1]: binds
Molecule: C/EBPα, endogenous in mouse liver (from UniProt P53566 1-359)

binding [2]: binds
B1: circadian nuclear receptor Rev-erbα, endogenous in mouse liver (protein, UniProt Q3UV55 1-615)
chain: MTTLDSNNNTGGVITYIGSSGSSPSRTSPESLYSDSSNGSFQSLTQGCPTYFPPSPTGSLTQDPARSFGSAPPSLSDDSSPSSASSSSSSSSSSFYNGSPPGSLQVAMEDSSRVSPSKGTSNITKLNGMVLLCKVCGDVASGFHYGVHACEGCKGFFRRSIQQNIQYKRCLKNENCSIVRINRNRCQQCRFKKCLSVGMSRDAVRFGRIPKREKQRMLAEMQSAMNLANNQLSSLCPLETSPTPHPTSGSMGPSPPPAPAPTPLVGFSQFPQQLTPPRSPSPEPTMEDVISQVARAHREIFTYAHDKLGTSPGNFNANHASGSPSATTPHRWESQGCPSAPNDNNLLAAQRHNEALNGLRQGPSSYPPTWPSGPTHHSCHQPNSNGHRLCPTHVYSAPEGEAPANSLRQGNTKNVLLACPMNMYPHGRSGRTVQEIWEDFSMSFTPAVREVVEFAKHIPGFRDLSQHDQVTLLKAGTFEVLMVRFASLFNVKDQTVMFLSRTTYSLQELGAMGMGDLLNAMFDFSEKLNSLALTEEELGLFTAVVLVSADRSGMENSASVEQLQETLLRALRALVLKNRPSETSRFTKLLLKLPDLRTLNNMHSEKLLSFRVDAQ

binding [2]: binds
B2: FXR, endogenous in mouse liver (protein, UniProt Q60641 1-488)
chain: MVMQFQGLENPIQISLHHSHRLSGFVPEGMSVKPAKGMLTEHAAGPLGQNLDLESYSPYNNVPFPQVQPQISSSSYYSNLGFYPQQPEDWYSPGIYELRRMPAETGYQGETEVSEMPVTKKPRMAAASAGRIKGDELCVVCGDRASGYHYNALTCEGCKGFFRRSITKNAVYKCKNGGNCVMDMYMRRKCQECRLRKCKEMGMLAECMYTGLLTEIQCKSKRLRKNVKQHADQTANEDDSEGRDLRQVTSTTKFCREKTELTADQQTLLDYIMDSYNKQRMPQEITNKILKEEFSAEENFLILTEMATSHVQILVEFTKKLPGFQTLDHEDQIALLKGSAVEAMFLRSAEIFNKKLPAGHADLLEERIRKSGISDEYITPMFSFYKSVGELKMTQEEYALLTAIVILSPDRQYIKDREAVEKLQEPLLDVLQKLCKMYQPENPQHFACLLGRLTELRTFNHHHAEMLMSWRVNDHKFTPLLCEIWDVQ

binding [2]: binds
B3: RXRα, endogenous in mouse liver (protein, UniProt P28700 1-467)
chain: MDTKHFLPLDFSTQVNSSSLNSPTGRGSMAVPSLHPSLGPGIGSPLGSPGQLHSPISTLSSPINGMGPPFSVISSPMGPHSMSVPTTPTLGFGTGSPQLNSPMNPVSSTEDIKPPLGLNGVLKVPAHPSGNMASFTKHICAICGDRSSGKHYGVYSCEGCKGFFKRTVRKDLTYTCRDNKDCLIDKRQRNRCQYCRYQKCLAMGMKREAVQEERQRGKDRNENEVESTSSANEDMPVEKILEAELAVEPKTETYVEANMGLNPSSPNDPVTNICQAADKQLFTLVEWAKRIPHFSELPLDDQVILLRAGWNELLIASFSHRSIAVKDGILLATGLHVHRNSAHSAGVGAIFDRVLTELVSKMRDMQMDKTELGCLRAIVLFNPDSKGLSNPAEVEALREKVYASLEAYCKHKYPEQPGRFAKLLLRLPALRSIGLKCLEHLFFFKLIGDTPIDTFLMEMLEAPHQAT

binding [2]: binds
B4: hepatocyte nuclear factor 4α (HNF4α), endogenous in mouse liver (protein, UniProt P49698 1-474)
chain: MRLSKTLAGMDMADYSAALDPAYTTLEFENVQVLTMGNDTSPSEGANLNSSNSLGVSALCAICGDRATGKHYGASSCDGCKGFFRRSVRKNHMYSCRFSRQCVVDKDKRNQCRYCRLKKCFRAGMKKEAVQNERDRISTRRSSYEDSSLPSINALLQAEVLSQQITSPISGINGDIRAKKIANITDVCESMKEQLLVLVEWAKYIPAFCELLLDDQVALLRAHAGEHLLLGATKRSMVFKDVLLLGNDYIVPRHCPELAEMSRVSIRILDELVLPFQELQIDDNEYACLKAIIFFDPDAKGLSDPGKIKRLRSQVQVSLEDYINDRQYDSRGRFGELLLLLPTLQSITWQMIEQIQFIKLFGMAKIDNLLQEMLLGGSASDAPHTHHPLHPHLMQEHMGTNVIVANTMPSHLSNGQMCEWPRPRGQAATPETPQPSPPSGSGSESYKLLPGAITTIVKPPSAIPQPTITKQEAI

binding [2]: binds
B5: ChREBP, endogenous in mouse liver (protein, UniProt Q99MZ3 1-864)
chain: MARALADLSVNLQVPRVVPSPDSDSDTDLEDPSPRRSAGGLHRSQVIHSGHFMVSSPHSDSLTRRRDQEGPVGLADFGPRSIDPTLTHLFECLSLAYSGKLVSPKWKNFKGLKLLCRDKIRLNNAIWRAWYIQYVQRRKSPVCGFVTPLQGSEADEHRKPEAVILEGNYWKRRIEVVMREYHKWRIYYKKRLRKSSREGDFLAPKQVEGGWPPPERWCEQLFSSVVPVLLGGSEEEPGGRQLLDLDCFLSDISDTLFTMTQPSPSSLQLPPEDAYVGNADMIQPDLTPLQPSLDDFMEISDFFTNYRPPQTPTSSNYIESPSFGPMADSLFSSGILAPEMPSPASSSSSSGMTPHSGNTRLQARNSCSGPLDPNPFLSSEFLLPEDPKTKIPPAPGPTPLLPFPTPVKVHGLEPCTPSPFPTMAPPPSLLPEESLLSARFPFTSAPPAPGVSTLPAPTTFVPTPQPGPGPVPFSVDHLPHGYLEPVFGPHFTVPQGMQPRCKPSSPSPGGQKASPPTLASATASPTATATARDNNPCLTQLLRAAKPEQALEPPTMPGTLLRPPESPQDTVSEIPRARAFFPPIPAPTPPRPPPGPATLAPPRSLVVPKAERLSPPASSGSERRLSGDLNSIQPSGALSVHLSPPQTVLSRGRVDNNKMENRRITHISAEQKRRFNIKLGFDTLHGLVSTLSAQPSLKVSKATTLQKTAEYILMLQQERAAMQEEAQQLRDEIEELNAAINLCQQQLPATGVPITHQRFDQMRDMFDDYVRTRTLHNWKFWVFSILIRPLFESFNGMVSTASLHSLRQTSLAWLEQYCSLPALRPTVLNSLRQLSTSTSILTDPSLVPEQATRAVTEGTLGRPL
